PubChem BioAssay AID652243 – Drosophila RNAi Screening Center | 2013
Purpose: 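Fly genes required for human androgen receptor driven transcription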 (primary screen). Cell system: Drosophila S2R+ cells. Reagent: long dsRNA against Drosophila genes. Timing: 72 h (48 h, then 24 h hormone). Treatment: synthetic androgen R1881 at 10 nM for 24 h. Read-out: 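Firefly light from an androgen-responsive reporter and Renilla control light per well, raw and unnormalised, for each of two replicates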. Direction: firefly reporter light: higher = more light from androgen-responsive reporter; Renilla control light: higher = more constitutive control signal (cell number, transfection). Call rule: 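Across duplicate plates, a knock-down whose log firefly/Renilla ratio shifted a set fold down or up from the GFP/LacZ control mean was a hit; the downward cut appears as both 1.5 and 3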. Meaning of the calls: active = hit: reporter lowered or raised; inactive = no hit.
The deposit covers about 24,000 reagents; shown is an unselected part of those that have a named target and a result. In the full data, 246 (1%) were called active. 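Plates not normalised; calls are printed but the firefly/Renilla ratio behind them is not deposited; fold cut for lowering reported inconsistently.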 The raw values are shown without normalisation. Reagent sequences are not shown. Not stated in the record: the amount of reagent.

no.	target	DRSC id	firefly reporter light, replicate 1	firefly reporter light, replicate 2	Renilla control light, replicate 1	Renilla control light, replicate 2	activity call
1	Cyp6a2	DRSC05014	3.18e5	2.61e5	3.13e6	2.09e6	inactive
2	Cyp6a2	DRSC24091	4.46e5	4.87e5	4.83e5	4.83e5	inactive
3	CG6565	DRSC02970	3.94e5	8.77e5	1.60e6	2.68e6	inactive
4	CycY	DRSC02420	9.63e5	9.37e5	2.66e6	2.37e6	inactive
5	CycY	DRSC25092	6.73e5	7.92e5	8.78e5	1.15e6	inactive
6	CycY	DRSC39018	2.84e5	3.63e5	1.11e6	8.79e5	inactive
7	CG30392	DRSC22341	9.96e5	9.65e5	7.52e5	6.61e5	inactive
8	p38b	DRSC03586	2.28e5	3.28e5	1.77e6	2.53e6	inactive
9	p38b	DRSC36754					inactive
10	Inx5	DRSC20051	2.09e5	1.45e5	8.03e5	3.47e5	inactive
11	CG14853	DRSC14977	4.56e5	3.62e5	3.37e6	2.67e6	inactive
12	CG14853	DRSC21528	6.88e5	5.21e5	1.58e6	1.38e6	inactive
13	CG14483	DRSC06455	1.53e5	1.22e5	2.41e6	2.41e6	inactive
14	CG17493	DRSC03798	2.61e5	2.04e5	1.29e6	9.29e5	inactive
15	Ndf	DRSC02775	8.51e5	1.05e6	1.26e6	1.51e6	inactive
16	CG18004	DRSC06705	5.64e5	7.37e5	7.29e5	8.22e5	inactive
17	CG18004	DRSC26317	2.88e5	3.28e5	5.59e5	5.19e5	inactive
18	RpS19a	DRSC20281	4.05e5	4.09e5	2.19e6	2.02e6	inactive
19	Rgk2	DRSC06503	1.10e5	1.66e5	1.09e6	2.37e6	inactive
20	Rgk2	DRSC21651	7.44e5	6.37e5	3.62e6	2.44e6	inactive
21	Rgk2	DRSC25737	6.16e5	6.70e5	7.16e5	8.05e5	inactive
22	Rgk2	DRSC29628	2.52e5	4.54e5	6.83e5	6.83e5	inactive
23	retn	DRSC04679	2.37e5	3.09e5	1.91e6	2.30e6	inactive
24	retn	DRSC27544	3.05e5	2.11e5	7.32e5	8.51e5	inactive
25	Yeti	DRSC21138	8.79e5	6.98e5	1.10e6	8.78e5	inactive
26	CG10912	DRSC06009	5.40e5	1.71e5	1.07e6	2.60e5	inactive
27	CG10912	DRSC25420	7.97e5	9.97e5	9.39e5	1.01e6	inactive
28	CG14926	DRSC02409	4.56e5	3.68e5	2.86e6	1.80e6	inactive
29	uncNacbeta	DRSC00326	1.38e5	1.30e5	9.54e5	1.05e6	inactive
30	mthl3	DRSC06997	8.45e5	5.16e5	1.22e6	8.12e5	inactive
31	mthl3	DRSC24927	5.91e5	4.04e5	6.49e5	7.15e5	inactive
32	CG18754	DRSC15387	1.26e5	1.78e5	1.90e6	1.86e6	inactive
33	Cchl	DRSC15949	87021	67043	5.61e5	5.03e5	inactive
34	Wdr33	DRSC12162	64649	78523	7.25e5	6.18e5	inactive
35	Wdr33	DRSC27065	2.73e5	2.32e5	6.01e5	4.44e5	inactive
36	CG12883	DRSC14570	1.58e5	2.05e5	1.72e6	2.67e6	inactive
37	CG12883	DRSC27305	2.74e5	2.43e5	6.09e5	6.29e5	inactive
38	AP-1mu	DRSC14089	56804	74063	3.70e5	5.60e5	inactive
39	AP-1mu	DRSC25744	8.33e5	6.89e5	9.35e5	1.03e6	inactive
40	CG12009	DRSC08217	6.19e5	6.05e5	1.31e6	9.25e5	inactive
41	CG12009	DRSC26937	3.37e5	2.48e5	7.10e5	4.88e5	inactive
42	CG16799	DRSC06626	1.53e5	1.81e5	3.31e6	3.55e6	inactive
43	CG16799	DRSC21553	1.26e6	1.07e6	2.57e6	1.88e6	inactive
44	idc	DRSC15680	64222	42577	3.50e5	4.78e5	inactive
45	CG12158	DRSC22933	4.04e5	7.35e5	8.60e5	1.60e6	inactive
46	AlaRS	DRSC01851	1.04e6	7.42e5	2.35e6	2.08e6	inactive
47	qin	DRSC14782	2.10e5	2.48e5	1.66e6	1.84e6	inactive
48	qin	DRSC14785	1.46e5	1.92e5	1.62e6	2.06e6	inactive
49	CG33282	DRSC00422	73325	1.30e5	6.32e5	1.05e6	inactive
50	CG8353	DRSC03084	1.64e5	2.06e5	1.29e6	1.93e6	inactive
51	CG8353	DRSC27248	2.74e5	2.16e5	5.28e5	5.94e5	inactive
52	CG5611	DRSC15843	1.93e5	1.94e5	1.99e6	3.15e6	inactive
53	Fas2	DRSC17308	7.07e5	6.46e5	1.81e6	1.40e6	inactive
54	Fas2	DRSC17309	7.95e5	8.46e5	1.92e6	1.69e6	inactive
55	Fas2	DRSC18664	1.20e5	1.05e5	1.02e6	7.37e5	inactive
56	wde	DRSC05955	1.03e6	5.94e5	2.68e6	1.18e6	inactive
57	CG15916	DRSC19740	5.97e5	6.76e5	4.44e6	3.17e6	inactive
58	Obp19c	DRSC20528	2.36e5	1.12e5	7.08e5	3.11e5	inactive
